According to US20210246168A1:
Results are given in words; binding and its absence hold for the method and conditions named. Binding seen in cells or lysates may run through a third protein. Some binding calls cover weakened binding; strength is not graded here.

By UniProt entry, the sequences of proteins in these tests, tags left out. Residues count along the entry.
UniProt P78504, residues 34-1218: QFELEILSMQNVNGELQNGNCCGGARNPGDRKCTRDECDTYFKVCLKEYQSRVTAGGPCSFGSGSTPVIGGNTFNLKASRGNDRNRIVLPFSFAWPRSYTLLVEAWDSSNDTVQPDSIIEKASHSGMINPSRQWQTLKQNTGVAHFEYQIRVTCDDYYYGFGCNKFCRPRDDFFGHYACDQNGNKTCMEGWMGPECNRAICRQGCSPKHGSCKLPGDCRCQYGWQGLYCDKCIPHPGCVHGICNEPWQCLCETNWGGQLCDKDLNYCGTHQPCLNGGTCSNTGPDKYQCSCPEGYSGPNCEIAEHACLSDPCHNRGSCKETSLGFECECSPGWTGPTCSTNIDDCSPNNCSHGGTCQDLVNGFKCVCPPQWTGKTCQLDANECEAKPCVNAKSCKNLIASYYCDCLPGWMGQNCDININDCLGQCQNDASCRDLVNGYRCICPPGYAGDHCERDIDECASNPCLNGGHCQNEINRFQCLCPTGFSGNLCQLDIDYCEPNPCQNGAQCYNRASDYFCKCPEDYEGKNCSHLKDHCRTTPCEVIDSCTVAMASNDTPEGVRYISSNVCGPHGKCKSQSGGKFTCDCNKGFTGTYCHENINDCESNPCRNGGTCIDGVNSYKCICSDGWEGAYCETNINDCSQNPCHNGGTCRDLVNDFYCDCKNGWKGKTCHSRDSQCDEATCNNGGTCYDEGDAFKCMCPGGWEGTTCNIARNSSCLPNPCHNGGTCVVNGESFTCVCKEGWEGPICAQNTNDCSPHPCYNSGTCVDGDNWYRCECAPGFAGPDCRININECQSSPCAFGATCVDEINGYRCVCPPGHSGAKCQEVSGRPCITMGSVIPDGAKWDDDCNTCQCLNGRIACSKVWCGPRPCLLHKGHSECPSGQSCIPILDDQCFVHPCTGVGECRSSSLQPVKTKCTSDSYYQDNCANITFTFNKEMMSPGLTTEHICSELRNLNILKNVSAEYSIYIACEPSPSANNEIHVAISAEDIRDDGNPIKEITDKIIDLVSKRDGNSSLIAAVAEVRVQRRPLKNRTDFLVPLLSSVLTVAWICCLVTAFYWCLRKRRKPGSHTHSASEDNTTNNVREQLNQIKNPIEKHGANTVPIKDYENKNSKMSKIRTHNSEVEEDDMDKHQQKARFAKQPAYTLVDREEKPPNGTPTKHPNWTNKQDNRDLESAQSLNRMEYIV

Target: human Jagged-1, full length (HEK293T-Jagged-1 cells) (human) (UniProt P78504)
Test: pull-down from HEK293T-Jagged1 lysate with biotin-labeled peptide and streptavidin magnetic beads, anti-Jagged1 blot

B1: biotinylated N1 (SEQ ID NO: 10) peptide (peptide)
peptide: CLDQIGEFQCICMPG
modifications: biotinylated (position of the biotin not stated)
  binding: binds
